Experimental findings from paper PMC3979679 are described below.

In assay [1] the target is T1, FLAG-tagged Mind bomb 2 (Mib2) (zebrafish) (UniProt A0AR23).
T1 sequence: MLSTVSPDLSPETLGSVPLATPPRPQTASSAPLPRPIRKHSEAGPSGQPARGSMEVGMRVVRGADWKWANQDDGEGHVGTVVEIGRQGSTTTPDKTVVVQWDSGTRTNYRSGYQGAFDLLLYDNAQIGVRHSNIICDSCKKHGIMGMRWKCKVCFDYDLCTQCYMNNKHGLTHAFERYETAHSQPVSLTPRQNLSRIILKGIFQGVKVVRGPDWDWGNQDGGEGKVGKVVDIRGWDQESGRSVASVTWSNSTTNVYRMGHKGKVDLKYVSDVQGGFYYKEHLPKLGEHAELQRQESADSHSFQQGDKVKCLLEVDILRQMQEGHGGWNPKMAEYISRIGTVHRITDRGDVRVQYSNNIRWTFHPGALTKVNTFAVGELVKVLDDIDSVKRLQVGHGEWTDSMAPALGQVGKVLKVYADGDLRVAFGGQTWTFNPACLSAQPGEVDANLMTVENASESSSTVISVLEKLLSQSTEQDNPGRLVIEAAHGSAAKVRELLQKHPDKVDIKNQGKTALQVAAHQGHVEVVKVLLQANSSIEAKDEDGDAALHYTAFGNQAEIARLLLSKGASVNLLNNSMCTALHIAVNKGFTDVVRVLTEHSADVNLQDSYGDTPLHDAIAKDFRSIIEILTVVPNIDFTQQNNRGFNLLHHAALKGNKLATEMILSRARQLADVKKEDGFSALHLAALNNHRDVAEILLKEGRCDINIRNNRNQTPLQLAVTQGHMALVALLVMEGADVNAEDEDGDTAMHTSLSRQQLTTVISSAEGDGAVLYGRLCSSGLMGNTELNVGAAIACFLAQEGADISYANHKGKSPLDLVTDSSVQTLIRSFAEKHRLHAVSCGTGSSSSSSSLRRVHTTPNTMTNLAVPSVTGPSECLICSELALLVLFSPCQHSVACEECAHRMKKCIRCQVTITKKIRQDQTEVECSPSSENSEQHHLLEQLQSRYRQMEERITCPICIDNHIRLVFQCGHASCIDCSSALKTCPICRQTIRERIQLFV
Nature of the assay: co-IP; COS7 cells co-transfected with FLAG-tagged Mib/Mib2 and Myc- or HA-tagged partner; lysate in IONIC buffer (50 mM Tris HCl pH 7.4, 150 mM NaCl, 1% Triton X-100); anti-FLAG M2 affinity gel 2 h at 4°C; blot with anti-Myc or anti-HA.

In assay [2] the target is T2, Mib2-C-RF12 (781-999 aa) (zebrafish) (UniProt A0AR23).
T2 sequence: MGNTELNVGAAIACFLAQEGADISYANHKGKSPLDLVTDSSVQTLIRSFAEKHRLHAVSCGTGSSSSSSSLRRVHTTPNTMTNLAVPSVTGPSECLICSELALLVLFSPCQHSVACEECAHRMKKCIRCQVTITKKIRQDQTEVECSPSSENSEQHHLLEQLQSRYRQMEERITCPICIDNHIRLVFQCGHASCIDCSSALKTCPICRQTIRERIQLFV
Nature of the assay: two-hybrid; first screen (Hybrigenics): LexA DNA-binding domain-bait and Gal4 activation domain-prey, HIS3 reporter, in the nucleus; random-primed Danio rerio embryo (18-20 hpf) cDNA library.

These are yes or no findings as the source states them, for the method shown. For part of these data: In cells and extracts the contact can be indirect. Some entries that bind do so weakly or less than the wild type. For part of these data: Sequences can lack the tags named with a protein.

B1: Trabid C (295-716 aa), Myc-tagged (domain or fragment, UniProt A0JMQ9 295-716)
chain: SGGDIARQLTADEVRILNRPSAFDAGFTLVHLAIRFQRQDMLAVLLTEVSQQTAKCIPALVCPELTEQIRREVAAALHRRKGEFPCYFFTDLVTFTLPADIEDLPPNVQEKLFDEVLDRDVQKELEEESPIINWSLELGTRLDSRLYALWNRTAGDCLLDSVLQATWGIYDKDSVLRKSLNDSLHDCSHWFYTRWKEWESWYSQSFGLHFSLREEQWQEDWAFILSLASQPGASLEQTHVFVLAHILRRPIIVYGVKYYKSFRGETLGYTRFQGVYLPLLWEQSFCWKSPIALGYTRGHFSALVAMENDGYDNRGAGANLNTDDDVTVTFLPLVDSERKLLHIHFLSAQEMGTEEQQERMLRQWMDCCVTEGGVLVAMQKSSRRRNHPLVTQMVEKWLDGYRQLAACPTLSDGEEEEEDEDE
As to B1, the binding entry in assay [1] is reported as “binds”.

B2: Fih-1 (full length), Myc-tagged (protein, UniProt P59723 1-344)
chain: MAETDGAAAFTELRDPDWDESQLRQYTFPTRQIPRLSHTDPRAEVLINNEEPVVLTDTSLVYPALKWDIPYLQENIGNGDFSVYIAENHKFLYYDEKKMVNFQDFVPKSRRIEMKFSEFVDKMHQTEEQGGKGRVYLQQTLNDTVGRKIVVDFLGFNWNWINKQQAKRNWGPLTSNLLLIGMEGNVTPAHYDEQQNFFAQIKGHKRCILFPPDQFDCLYPYPVHHPCDRQSQVDFENPDYDKFPNFKNAVGYEAVVGPGDVLYIPMYWWHHIESLLNGGETITVNFWYKGAPTPKRIEYPLKAHQKVAIMRNIEKMLGEALGDPHEVGPLLNMMIKGRYDHGLS
For B2, in assay [1], the binding result is recorded as “binds”.

B3: …: Danio rerio similar to limb expression 1 (lix1), prey (domain or fragment, UniProt A2BF97 1-267)
chain: MSGADSDDDRAFKDLNVVGMLHKFWEQKQAAGVMMEIENLVVYESIPSPSPPFICYVTLPGGSCFGNFKHCYSKAEARRDAARVALMNSTFNELPCRRITPEFISHSVKEAVSTTSGNIADASDPSTSIGAYCLMLELNTGKTMLEFQEIMTVFQLLHWNGTLKAFRDMRCSRQEVIQYYSQQRLDERTRSHMALDWLQKELQSPGLLSQELQLAVKELGEARRTGRELRFYKEKKEILSLALSHADAEDLEEEMSWREATEFDCFE
On to B3, for which, in assay [2], the binding entry was “binds”.

B4: Usp1 C (349-772 aa), Myc-tagged (domain or fragment, UniProt A0A8M1PE43 349-772)
chain: SIFSKFRSMGRITSHVGAKGETKEKSDCSSQEKQDKDNSENENKTHEVKQDLGKNEEQSGLDVLKWMFQGQLVLRTRCLECECFTERREDFQDISVPVQEDETLSSDSSSEISPDPKTELKTLKWAISQFASVERIVGQDKYFCETCHHYTEAERSLLFDKTPEVITIHLKCFAANGSEMDPYAGLSKVNTPLQTPLKLSLHEWCTQPDSPDYELFAVVMHSGVTISSGHYTTYIRMMDLHHTNIKPQTQDEEHDRDQEEDMKQKKEETSQTDYDDGEVSFSLSGRGRNVARTSGTNNMSSKTAGKRCSEGVGLLGGQRSITSYELSNSKQNNPDKPSSLSSRALLQNAVKKEPEEDCADAVADGTQVSFDLALRNLLDFEGKWMLFDDSEVRLYEEEDFLRACSPETCSTSTPYLLFYKRVSQ
In the case of B4, the binding entry in assay [1] is given as “binds”.

B5: rapunzel (rpz), prey (domain or fragment, UniProt F1QUP1 47-227)
chain: VVLHHVDDEDLQKLKREFGSVNRALDEISQQNRQALLQIRKETVDRQYHEVEENIRHQFRKFMEIMEAKPEHLQRKKEDFVESFINDKDDQNMYTLYDGVMGKRKLFSQPILDVYMKHSQGDHRVMENLCTRLAYLFCIGFIALMGYYGILGDDLESRNEEWEENMRNVQEKMQEVLRSCK
For the molecule B5, the binding result in assay [2] was “binds”.

B6: ankyrin repeat domain 52a (ankrd52a), prey (domain or fragment, UniProt Q502K3 230-510)
chain: AEIDEPNAFGNTALHVACYTGQEAVANELVNRGANVNQPNHRGYTPLHLAAVSTNGALCLELLVNNGADVNMQSKEGKSPLHMAAIHGRFTRSQILIQNGGEIDCVDRYGNTPLHVAAKYGHELLISTLMTNGADTARQGIHGMFPLHLAVLYGSSDCCRKLLSSGQLYSIVLSMSKEHVLSAGFDINTPDNFGRTCLHAAASGGNIECLNLLLSSGADMNKKDKFGRTPLHYAAANGRYQCVVVLVGAGAEVNERDRSGCTPLHYSAASTAFCRTDRPHA
For B6, the binding entry in assay [2] is on record as “binds”.
